Results are given in words; binding and its absence hold for the method and conditions named. Binding seen in cells or lysates may run through a third protein. A yes stands for co-enrichment or nearness to the bait. Other partners may have been found.

Sequences of proteins named here, by UniProt entry; tags and fusion partners are left off.
UniProt Q6PD10: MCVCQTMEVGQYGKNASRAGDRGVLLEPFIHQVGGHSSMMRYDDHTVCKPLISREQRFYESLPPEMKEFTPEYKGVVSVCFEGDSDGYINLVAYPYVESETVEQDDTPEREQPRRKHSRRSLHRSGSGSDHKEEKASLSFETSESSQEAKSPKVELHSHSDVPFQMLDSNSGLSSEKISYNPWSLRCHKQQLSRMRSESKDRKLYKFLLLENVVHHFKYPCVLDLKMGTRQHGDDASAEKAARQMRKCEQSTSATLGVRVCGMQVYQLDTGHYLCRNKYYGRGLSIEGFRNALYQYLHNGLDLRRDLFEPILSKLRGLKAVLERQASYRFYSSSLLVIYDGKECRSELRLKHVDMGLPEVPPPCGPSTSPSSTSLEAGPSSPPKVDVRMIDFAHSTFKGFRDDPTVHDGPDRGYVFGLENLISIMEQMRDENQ

The assay has as its target Inositol hexakisphosphate kinase 1 (IP6K1), endogenous (mouse (endogenous in primary murine hepatocytes)) (UniProt Q6PD10). Briefly: affinity purification with mass spectrometry; endogenous IP6K1 immunoprecipitated in primary murine hepatocytes; protein electrophoresis, silver staining, band identified by mass spectrometry.

B1: Ubiquitination factor E4A (UBE4A), endogenous (enzyme, UniProt E9Q735 1-1028)
chain: MTDQENNNNISSNPFAALFGSLADAKQFAAIQKEQLKQQSDELPASPDDSDNSVSESLDEFDYSVSEISRSFRTHQEMCEQLNINHMIQRIFLITLDNSDPSLKSGNGIPSRCVYLEEMAVELEDQDWLDMSNVEQAIFARLLLQDPGNHLISMTSSTTLNLSADRDAGERHIFCYLYSCFQRAKEEITKVPENLLPFAVQCRNLTVSNTRTVLLTPEIYVDQNIHEQLVDLMLEAIQGAHFEDVTEFLEEVIEALLLDEEVRTFPEVMIPVFDILLSRIKDLELCQILLYAYLDILLYFTRQKDMAKVFLEYIQPKDPSNGQMYQKTLLGVILNISCLLKTPGVVENHGFFLNPSRSSPQEIKVQEANIHQFMAQFHEKIYQMLKNLLQLSPETKHCILFWLGNCLHANAGRTKIWANQMPEIFFQMYASDAFFLNLGAALLKLCQPFCKPRSSRLLTFNPTYCVLKDLNDEERKIKSVHMRGLDKETCLIPAVQEPTFPQSYNLVTENLALTEYTLYLGFHRLHDQMVKINQNLHRLQVAWRDAQQSSSPAADNLREQFERLMTIYLSTKTAMTEPQMLQNCLNLQVSMAVLLVQLAIGNEGSQPIELSFPLPDGYSSLAYVPEFFADNLGDFLIFLRRFAEDILETSADSLEHVLHFITIFTGSIERMKNPHLRAKLAEVLEAVMPHLDQTPSPLVSSVFHRKRVFCNFPYAPQLAEALIKVFVDIEFTGDPHQFEQKFNYRRPMYPILRYMWGTDCYRESIKYLSKIKIQQIEKDRGEWESLTPEARREKEAGLQMFGQLARFHNIMSNETIGTLSFLTSEIKSLFVHPFLAERIISMLNYFLQHLVGPKMGALKVKDFSEFDFKPQQLVSDICTIYLNLGDEENFCATVPKDGRSYSPTLFAQTVRVLKKINKPGNMIVAFSNLAERIKSLADLQQQEEETYADACDEFLDPIMSTLMSDPVVLPSSRVTVDRSTIARHLLSDQTDPFNRSPLTMDQIRPNTELKEKIQRWLAERKQQKEQPE
B1: the binding result is recorded as “binds”.

For the origin of these results see article PMC7617243.
